In the supplement of paper PMC4604168 (melanoma cell lines):
The other results are listed elsewhere or left out. Single values are uncertain, as repeats are few or missing.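 The apoptosis fraction was the count of cleaved-PARP antibody-stained nuclei relative to all DNA-stained nuclei, imaged in 1,536-well plates. Screening doses were set so most cells survived, and baseline and induced cleaved-PARP levels vary greatly across cell lines.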

Tests used:
Test in all cases: cleaved PARP positive nuclei fraction relative to DMSO control; melanoma cells; higher = more apoptosis
Conditions in all cases: library dose: low library concentration; 72 h
[1] = test system: WM115
[2] = test system: WM1716
[3] = test system: WM1745
[4] = test system: WM3526
[5] = test system: WM3619
[6] = test system: WM451Lu

| SMILES | cleaved PARP positive nuclei fraction [1] [%] | cleaved PARP positive nuclei fraction [2] [%] | cleaved PARP positive nuclei fraction [3] [%] | cleaved PARP positive nuclei fraction [4] [%] | cleaved PARP positive nuclei fraction [5] [%] | cleaved PARP positive nuclei fraction [6] [%] |
| --- | --- | --- | --- | --- | --- | --- |
| CN(c1ncccc1CNc1nc(Nc2ccc3c(c2)CC(=O)N3)ncc1C(F)(F)F)S(C)(=O)=O + Cc1cc([N+](=O)[O-])ccc1NS(=O)(=O)c1cc(Cl)ccc1Cl [FH535] (first compound 0.08 µM, partner dose 1 µM) | 130 | 401 | 115 | 183 | 98 | 47.7 |
| CC1(C)CCC(c2ccc(Cl)cc2)=C(CN2CCN(c3ccc(C(=O)NS(=O)(=O)c4ccc(N[C@H](CCN5CCOCC5)CSc5ccccc5)c(S(=O)(=O)C(F)(F)F)c4)cc3)CC2)C1 + Cn1cnc2c(F)c(Nc3ccc(Br)cc3Cl)c(C(=O)NOCCO)cc21 [selumetinib] (first compound 0.4 µM, partner dose 0.015 µM) | 799 | 110 | 643 | 50.2 | 117 | 63.2 |
| CN(c1ncccc1CNc1nc(Nc2ccc3c(c2)CC(=O)N3)ncc1C(F)(F)F)S(C)(=O)=O + COc1ccc(-c2ccc3c(N4CCOCC4)nc(N4C[C@@H](C)O[C@@H](C)C4)nc3n2)cc1CO [KU0063794] (first compound 0.08 µM, partner dose 0.02 µM) | 120 | 84.6 | 100 | 171 | 82.6 | 41.2 |
| C[C@]1(O)C[C@@H](c2nc(-c3ccc4ccc(-c5ccccc5)nc4c3)c3c(N)nccn32)C1 + CCCS(=O)(=O)Nc1ccc(F)c(C(=O)c2c[nH]c3ncc(Cl)cc23)c1F [PLX4720] (first compound 0.4 µM, partner dose 0.08 µM) | 172 | 59.2 | 134 | 129 | 118 | 126 |
| NC(=O)c1ccc(N(C(N)=O)c2c(F)cccc2F)nc1-c1ccc(F)cc1F + Oc1nc(-c2ccc(C(F)(F)F)cc2)nc2c1CSCC2 [XAV939] (first compound 0.4 µM, partner dose 2 µM) | 165 | 73 | 101 | 295 | 93.3 | 78.6 |
| CCN(CC)CCNC(=O)c1c(C)[nH]c(/C=C2\C(=O)Nc3ccc(F)cc32)c1C [sunitinib] + C[C@@H]1CCN(C(=O)CC#N)C[C@@H]1N(C)c1ncnc2[nH]ccc12 [CP690550] (first compound 0.4 µM, partner dose 1 µM) | 119 | 129 | 99.5 | 110 | 83.6 | 43.3 |
| Cn1sc(=O)n(Cc2ccccc2)c1=O + C=CCNC1=C2C[C@@H](C)C[C@H](OC)[C@H](O)[C@@H](C)/C=C(\C)[C@H](OC(N)=O)[C@@H](OC)/C=C\C=C(/C)C(=O)NC(=CC1=O)C2=O [Tanespimycin] (first compound 0.4 µM, partner dose 0.002 µM) | 30.1 | 223 | 103 | 100 | 92.4 | 91.1 |
| NC1(c2ccc(-c3nc4ccn5c(=O)[nH]nc5c4cc3-c3ccccc3)cc2)CCC1 + COc1cc2c(Oc3ccc4[nH]c(C)cc4c3F)ncnc2cc1OCCCN1CCCC1 [cediranib] (first compound 0.4 µM, partner dose 0.4 µM) | 104 | 111 | 96.6 | 35.6 | 90.8 | 448 |
| Cn1cnc2c(F)c(Nc3ccc(Br)cc3Cl)c(C(=O)NOCCO)cc21 [selumetinib] + O=C(O)C(=O)Nc1sc2c(c1C(=O)O)CCNC2 [TCS401] (first compound 0.015 µM, partner dose 1.66667 µM) | 128 | 139 | 91.1 | 145 | 98.6 | 20.3 |
| NC1(c2ccc(-c3nc4ccn5c(=O)[nH]nc5c4cc3-c3ccccc3)cc2)CCC1 + Clc1ccc(Nc2nnc(Cc3ccncc3)c3ccccc23)cc1 [vatalanib] (first compound 0.4 µM, partner dose 2 µM) | 289 | 77.3 | 111 | 83.1 | 131 | 113 |
| NC1(c2ccc(-c3nc4ccn5c(=O)[nH]nc5c4cc3-c3ccccc3)cc2)CCC1 + CCCCCCCCCCCC1=C(O)C(=O)C=C(O)C1=O [Embelin] (first compound 0.4 µM, partner dose 1.2 µM) | 104 | 48 | 104 | 209 | 97.5 | 75.2 |
| NC1(c2ccc(-c3nc4ccn5c(=O)[nH]nc5c4cc3-c3ccccc3)cc2)CCC1 + CO[C@H]1C[C@@H]2CC[C@@H](C)[C@@](O)(O2)C(=O)C(=O)N2CCCC[C@H]2C(=O)O[C@H]([C@H](C)C[C@@H]2CC[C@@H](OCCO)[C@H](OC)C2)CC(=O)[C@H](C)/C=C(\C)[C@@H](O)[C@@H](OC)C(=O)[C@H](C)C[C@H](C)/C=C/C=C/C=C/1C [everolimus] (first compound 0.4 µM, partner dose 0.02 µM) | 338 | 536 | 218 | 313 | 151 | 210 |
| CC(=O)O[C@@]12CO[C@@H]1C[C@H](O)[C@@]1(C)C(=O)[C@H](O)C3=C(C)[C@@H](OC(=O)[C@H](O)[C@@H](NC(=O)OC(C)(C)C)c4ccccc4)C[C@@](O)([C@@H](OC(=O)c4ccccc4)[C@H]21)C3(C)C [Docetaxel] + CC(C)C[C@H](NC(=O)[C@H](Cc1ccccc1)NC(=O)c1cnccn1)B(O)O [Bortezomib] (first compound 0.0001 µM, partner dose 0.001 µM) | 271 | 110 | 194 | 80.4 | 127 | 157 |
| CCN(CC)CCNC(=O)c1c(C)[nH]c(/C=C2\C(=O)Nc3ccc(F)cc32)c1C [sunitinib] + Cn1cncc1[C@@](N)(c1ccc(Cl)cc1)c1ccc2c(c1)c(-c1cccc(Cl)c1)cc(=O)n2C [tipifarnib] (first compound 0.4 µM, partner dose 0.01 µM) | 143 | 47.2 | 109 | 197 | 104 | 50.1 |
| C[C@@H](N)c1ccc(C(=O)Nc2ccnc3[nH]ccc23)cc1 + NC(=O)c1ccc(N(C(N)=O)c2c(F)cccc2F)nc1-c1ccc(F)cc1F [VX702] (first compound 0.4 µM, partner dose 0.4 µM) | 94.7 | 389 | 113 | 112 | 73.2 | 60.7 |
| CCCCCCCCc1ccc(CCC(N)(CO)CO)cc1 [fingolimod] + NC1(c2ccc(-c3nc4ccn5c(=O)[nH]nc5c4cc3-c3ccccc3)cc2)CCC1 [MK2206] (first compound 2 µM, partner dose 0.4 µM) | 188 | 190 | 116 | 31 | 106 | 29.1 |
| CCCCCCCCc1ccc(CCC(N)(CO)CO)cc1 [fingolimod] + CC(C)C[C@H](NC(=O)[C@H](Cc1ccccc1)NC(=O)c1cnccn1)B(O)O [Bortezomib] (first compound 2 µM, partner dose 0.001 µM) | 165 | 117 | 137 | 129 | 351 | 86.2 |
| C[C@@H](N)c1ccc(C(=O)Nc2ccnc3[nH]ccc23)cc1 + O=C(O)c1ccc2c(c1)nc(Nc1cccc(Cl)c1)c1ccncc12 [CX4945] (first compound 0.4 µM, partner dose 0.4 µM) | 139 | 99.8 | 109 | 45.6 | 116 | 30.7 |
| CCCCCCCCc1ccc(CCC(N)(CO)CO)cc1 [fingolimod] + Nc1ccn([C@@H]2O[C@H](CO)[C@@H](O)C2(F)F)c(=O)n1 [gemcitabine] (first compound 2 µM, partner dose 0.0004 µM) | 139 | 332 | 114 | 44 | 110 | 35.5 |
| CC1(C)CCC(c2ccc(Cl)cc2)=C(CN2CCN(c3ccc(C(=O)NS(=O)(=O)c4ccc(N[C@H](CCN5CCOCC5)CSc5ccccc5)c(S(=O)(=O)C(F)(F)F)c4)cc3)CC2)C1 + CC(C)(C)c1cnc(CSc2cnc(NC(=O)C3CCNCC3)s2)o1 [SNS-032] (first compound 0.4 µM, partner dose 0.01 µM) | 253 | 475 | 553 | 77.5 | 120 | 23.1 |
| COc1ccc(C2=N[C@@H](c3ccc(Cl)cc3)[C@@H](c3ccc(Cl)cc3)N2C(=O)N2CCNC(=O)C2)c(OC(C)C)c1 [Nutlin-3] + C=CCn1c(=O)c2cnc(Nc3ccc(N4CCN(C)CC4)cc3)nc2n1-c1cccc(C(C)(C)O)n1 [MK1775] (first compound 0.1 µM, partner dose 0.02 µM) | 179 | 156 | 119 | 69.4 | 134 | 52.5 |
| CN(c1ncccc1CNc1nc(Nc2ccc3c(c2)CC(=O)N3)ncc1C(F)(F)F)S(C)(=O)=O + Cn1nnc2c(C(N)=O)ncn2c1=O [temozolomide] (first compound 0.08 µM, partner dose 2 µM) | 229 | 49.4 | 108 | 138 | 105 | 28.8 |
| CS(=O)(=O)c1ccc(C(=O)Nc2ccc(Cl)c(-c3ccccn3)c2)c(Cl)c1 [vismodegib] + Oc1cc(-c2nc(-c3ccccc3)[nH]c2-c2ccncc2)ccc1Cl [L779450] (first compound 1 µM, partner dose 0.2 µM) | 66.3 | 121 | 104 | 23.1 | 91.3 | 69.9 |

Quoted at random: two entries already listed, in no set order.

| SMILES | cleaved PARP positive nuclei fraction [1] [%] | cleaved PARP positive nuclei fraction [2] [%] | cleaved PARP positive nuclei fraction [3] [%] | cleaved PARP positive nuclei fraction [4] [%] | cleaved PARP positive nuclei fraction [5] [%] | cleaved PARP positive nuclei fraction [6] [%] |
| --- | --- | --- | --- | --- | --- | --- |
| C[C@]1(O)C[C@@H](c2nc(-c3ccc4ccc(-c5ccccc5)nc4c3)c3c(N)nccn32)C1 + CCCS(=O)(=O)Nc1ccc(F)c(C(=O)c2c[nH]c3ncc(Cl)cc23)c1F [PLX4720] (first compound 0.4 µM, partner dose 0.08 µM) | 172 | 59.2 | 134 | 129 | 118 | 126 |
| CC1(C)CCC(c2ccc(Cl)cc2)=C(CN2CCN(c3ccc(C(=O)NS(=O)(=O)c4ccc(N[C@H](CCN5CCOCC5)CSc5ccccc5)c(S(=O)(=O)C(F)(F)F)c4)cc3)CC2)C1 + Cn1cnc2c(F)c(Nc3ccc(Br)cc3Cl)c(C(=O)NOCCO)cc21 [selumetinib] (first compound 0.4 µM, partner dose 0.015 µM) | 799 | 110 | 643 | 50.2 | 117 | 63.2 |
